Assay [1] has as its target Recombinant human RyR2 (wild type), detergent-solubilised from HEK293 cells, before PKA or phosphatase treatment (human) (UniProt Q92736). As to the kind of experiment: affinity purification: RyR2 with GST-calstabin-2 held on a GSTrap HP column and eluted with glutathione.
For assay [2], the target named is Recombinant human RyR2-R2474S, detergent-solubilised from HEK293 cells, before PKA treatment (human) (UniProt Q92736). The description is as above.
For assay [3], the target named is PKA phosphorylated human RyR2-R2474S (CPVT mutant, recombinant, from HEK293 cells) (human) (UniProt Q92736). As to the kind of experiment: cryo-EM model of the RyR2 complex (initial model built on primed PKA RyR2-R2474S).

By UniProt entry, the sequences of proteins in these tests, tags left out. Where a name states a change or a piece, a line headed by the entry shows the natural chain unless it says otherwise.
UniProt P68106: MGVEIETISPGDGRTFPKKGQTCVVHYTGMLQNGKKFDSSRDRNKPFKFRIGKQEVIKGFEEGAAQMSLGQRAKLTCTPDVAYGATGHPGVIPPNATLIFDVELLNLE

These results are taken from patent US20230368862A1, “BINDING SITE IN TYPE 2 RYANODINE RECEPTOR” (The Trustees of Columbia University in the City of New York, priority 2021, published 2023).

No constants are given. Whether binding was seen depends on the method and setting. Some binding calls cover weakened binding; strength is not graded here.

In the case of “Recombinant human GST-calstabin-2 (from UniProt P68106 1-108)”, the binding result in assay [1] and in assay [2] was “binds” each time. Take “calstabin-2 (PPIase FKBP1B, FKBP12.6), human (from UniProt P68106 1-108)”: the binding entry in assay [3] is “binds”.
